# Measurements as given in article PMC12118576, “Selective Glycopolymer Inhibitors of Galectin-3: Supportive Anti-Cancer Agents Protecting Monocytes and Preserving Interferon-Gamma Function” (International Journal of Nanomedicine, 2025).
# By UniProt entry, the sequences of proteins in these tests, tags left out.
# UniProt P17931: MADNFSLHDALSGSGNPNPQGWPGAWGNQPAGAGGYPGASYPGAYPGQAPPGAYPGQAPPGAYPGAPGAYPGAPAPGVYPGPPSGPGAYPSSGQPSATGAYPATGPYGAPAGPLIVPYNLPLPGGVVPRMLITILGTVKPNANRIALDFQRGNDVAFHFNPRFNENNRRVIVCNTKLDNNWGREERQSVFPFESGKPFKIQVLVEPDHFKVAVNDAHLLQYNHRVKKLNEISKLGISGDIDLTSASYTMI
# Results are given in words; binding and its absence hold for the method and conditions named. Some binding calls cover weakened binding; strength is not graded here.
# Target: T1, asialofetuin (UniProt P12763)
# T1 sequence: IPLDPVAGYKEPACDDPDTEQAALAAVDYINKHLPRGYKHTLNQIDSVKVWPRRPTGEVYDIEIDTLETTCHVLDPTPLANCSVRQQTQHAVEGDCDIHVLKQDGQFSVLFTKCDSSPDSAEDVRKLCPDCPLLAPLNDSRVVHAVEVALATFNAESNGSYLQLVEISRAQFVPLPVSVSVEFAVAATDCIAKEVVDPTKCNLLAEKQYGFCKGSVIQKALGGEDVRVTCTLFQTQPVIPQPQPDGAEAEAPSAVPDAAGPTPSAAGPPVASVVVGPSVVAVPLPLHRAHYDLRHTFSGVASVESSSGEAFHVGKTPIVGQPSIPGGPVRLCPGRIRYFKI
# Assay: ELISA; competitive ELISA-type assay; ASF coated on the plate (0.1 µM in PBS, pH 7.5); Gal-1 or Gal-3 1.25 µM in EPBS (2 mM EDTA in PBS) with serial dilutions of glycopolymers or oligosaccharides, 2 h; bound galectin detected with anti-His-HRP; both purified
substance,measurement,value
recombinant human galectin-3 (His-tagged) (from UniProt P17931 1-250),binding,binds
